This note sets out measurements from publication PMC5098908.

Chains of the proteins cited; added tags and fusions are not shown. Residues count along the entry.
UniProt P35991: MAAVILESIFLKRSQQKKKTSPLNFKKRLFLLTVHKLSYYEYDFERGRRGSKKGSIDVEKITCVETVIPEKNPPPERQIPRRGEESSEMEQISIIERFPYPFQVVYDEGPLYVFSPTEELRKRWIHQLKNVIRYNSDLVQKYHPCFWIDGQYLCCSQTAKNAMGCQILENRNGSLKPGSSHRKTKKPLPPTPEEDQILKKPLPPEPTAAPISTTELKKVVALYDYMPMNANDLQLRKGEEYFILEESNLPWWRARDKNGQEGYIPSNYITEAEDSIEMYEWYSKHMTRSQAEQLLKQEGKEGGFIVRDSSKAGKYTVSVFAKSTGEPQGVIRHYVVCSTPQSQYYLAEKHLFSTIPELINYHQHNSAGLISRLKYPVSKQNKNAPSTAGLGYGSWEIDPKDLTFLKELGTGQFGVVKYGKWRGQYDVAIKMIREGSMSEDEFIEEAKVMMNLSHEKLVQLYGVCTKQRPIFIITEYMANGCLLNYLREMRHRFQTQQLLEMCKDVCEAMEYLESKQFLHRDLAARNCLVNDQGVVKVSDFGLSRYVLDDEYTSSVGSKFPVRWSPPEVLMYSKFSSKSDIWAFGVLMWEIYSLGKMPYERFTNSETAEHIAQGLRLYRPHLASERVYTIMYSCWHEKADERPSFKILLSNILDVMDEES
UniProt P05555, residues 17-1153: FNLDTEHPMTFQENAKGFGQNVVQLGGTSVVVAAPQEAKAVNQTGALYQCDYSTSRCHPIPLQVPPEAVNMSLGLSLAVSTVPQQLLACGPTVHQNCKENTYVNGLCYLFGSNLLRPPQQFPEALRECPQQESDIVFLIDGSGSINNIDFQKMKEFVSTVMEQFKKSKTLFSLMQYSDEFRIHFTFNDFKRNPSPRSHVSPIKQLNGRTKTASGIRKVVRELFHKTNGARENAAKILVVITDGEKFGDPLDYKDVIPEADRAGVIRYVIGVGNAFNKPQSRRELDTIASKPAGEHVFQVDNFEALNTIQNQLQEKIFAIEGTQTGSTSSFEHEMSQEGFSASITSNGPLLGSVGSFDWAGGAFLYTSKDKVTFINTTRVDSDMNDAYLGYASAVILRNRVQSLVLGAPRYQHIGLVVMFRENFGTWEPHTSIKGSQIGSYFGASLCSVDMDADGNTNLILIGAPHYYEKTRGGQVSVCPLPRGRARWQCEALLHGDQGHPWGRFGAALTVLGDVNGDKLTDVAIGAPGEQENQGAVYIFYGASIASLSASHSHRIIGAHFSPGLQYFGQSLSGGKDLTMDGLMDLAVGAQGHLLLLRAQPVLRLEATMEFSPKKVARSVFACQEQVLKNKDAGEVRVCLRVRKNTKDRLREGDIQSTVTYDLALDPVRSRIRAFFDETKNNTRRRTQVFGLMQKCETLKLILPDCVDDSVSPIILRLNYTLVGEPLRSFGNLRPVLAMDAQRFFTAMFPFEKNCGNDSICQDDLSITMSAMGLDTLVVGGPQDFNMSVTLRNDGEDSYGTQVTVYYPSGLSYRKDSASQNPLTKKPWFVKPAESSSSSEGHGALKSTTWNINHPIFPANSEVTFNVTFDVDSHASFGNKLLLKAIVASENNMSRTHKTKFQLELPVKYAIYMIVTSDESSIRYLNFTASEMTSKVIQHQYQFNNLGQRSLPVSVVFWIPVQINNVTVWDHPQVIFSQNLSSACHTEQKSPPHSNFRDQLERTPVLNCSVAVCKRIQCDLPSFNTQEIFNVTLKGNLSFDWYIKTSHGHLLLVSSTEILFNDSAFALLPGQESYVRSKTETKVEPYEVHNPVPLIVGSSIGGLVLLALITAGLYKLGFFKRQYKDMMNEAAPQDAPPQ

Holding throughout (assay): co-IP; lysates (500 μg protein, Pierce IP Lysis buffer) of mouse bone marrow-derived macrophages treated with CD95L (40 ng/ml) or non-treated; immunoprecipitated at 4°C for 4 hr with anti-Btk, anti-CD11a (M17/4) or anti-CD11b (M1/70), Dynabeads M-280 Streptavidin; immunoblotted for CD95
A general note: In western blotting, separated proteins are transferred to a membrane and probed.

In assay [1] the target is Bruton's tyrosine kinase (mouse (endogenous in bone marrow-derived macrophages)) (UniProt P35991).
In assay [2] the target is T1, integrin αL (mouse (endogenous in bone marrow-derived macrophages)) (UniProt P24063).
T1 sequence: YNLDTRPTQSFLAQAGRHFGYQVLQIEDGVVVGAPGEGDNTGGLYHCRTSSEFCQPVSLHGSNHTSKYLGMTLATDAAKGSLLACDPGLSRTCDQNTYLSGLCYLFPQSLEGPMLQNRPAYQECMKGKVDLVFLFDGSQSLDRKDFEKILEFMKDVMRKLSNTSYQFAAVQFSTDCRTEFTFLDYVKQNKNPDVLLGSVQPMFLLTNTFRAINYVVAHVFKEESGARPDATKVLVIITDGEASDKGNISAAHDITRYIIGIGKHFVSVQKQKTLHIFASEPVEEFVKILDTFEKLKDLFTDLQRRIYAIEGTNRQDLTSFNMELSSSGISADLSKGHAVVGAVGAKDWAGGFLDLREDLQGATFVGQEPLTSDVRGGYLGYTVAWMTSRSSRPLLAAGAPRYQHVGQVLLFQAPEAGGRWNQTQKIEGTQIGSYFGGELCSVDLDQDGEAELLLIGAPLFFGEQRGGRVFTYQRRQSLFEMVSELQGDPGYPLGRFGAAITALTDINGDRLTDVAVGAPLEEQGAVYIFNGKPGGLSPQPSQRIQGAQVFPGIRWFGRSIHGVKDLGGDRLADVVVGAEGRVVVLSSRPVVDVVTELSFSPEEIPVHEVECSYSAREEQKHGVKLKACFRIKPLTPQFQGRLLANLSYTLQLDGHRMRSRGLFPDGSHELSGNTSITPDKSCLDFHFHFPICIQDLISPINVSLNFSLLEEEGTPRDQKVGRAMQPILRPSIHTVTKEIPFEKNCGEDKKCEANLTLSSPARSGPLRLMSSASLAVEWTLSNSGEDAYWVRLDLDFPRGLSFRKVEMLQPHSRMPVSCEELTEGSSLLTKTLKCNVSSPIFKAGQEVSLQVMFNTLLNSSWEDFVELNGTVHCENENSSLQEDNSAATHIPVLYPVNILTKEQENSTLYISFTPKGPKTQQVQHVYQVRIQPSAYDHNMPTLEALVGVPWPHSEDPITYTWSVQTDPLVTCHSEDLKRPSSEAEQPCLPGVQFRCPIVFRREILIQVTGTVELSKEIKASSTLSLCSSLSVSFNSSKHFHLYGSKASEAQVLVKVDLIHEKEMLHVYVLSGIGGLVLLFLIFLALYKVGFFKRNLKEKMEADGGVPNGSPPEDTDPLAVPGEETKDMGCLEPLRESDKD

Assay [3] deals with integrin αM (mouse (endogenous in bone marrow-derived macrophages)) (UniProt P05555).

No constants are given. Whether binding was seen depends on the method and setting. In cells and extracts the contact can be indirect. Some results given as binding are weak or reduced against the parent protein; the word gives no strength.

B1: CD95 (receptor, UniProt P25446 22-327)
chain: QGTNSISESLKLRRRVRETDKNCSEGLYQGGPFCCQPCQPGKKKVEDCKMNGGTPTCAPCTEGKEYMDKNHYADKCRRCTLCDEEHGLEVETNCTLTQNTKCKCKPDFYCDSPGCEHCVRCASCEHGTLEPCTATSNTNCRKQSPRNRLWLLTILVLLIPLVFIYRKYRKRKCWKRRQDDPESRTSSRETIPMNASNLSLSKYIPRIAEDMTIQEAKKFARENNIKEGKIDEIMHDSIQDTAEQKVQLLLCWYQSHGKSDAYQDLIKGLKKAECRRTLDKFQDMVQKDLGKSTPDTGNENEGQCLE
For the molecule B1, the binding entry was “binds” in assay [1], “binds” in assay [2] and “no binding” in assay [3].
